This is an account of results in patent US11511054B2, “Use of antistatic materials in the airway for thermal aerosol condensation process” (Alexza Pharmaceuticals, Inc., priority 2015, dated 2022).

“And” between values parts separate entries of the source, which are not always exact repeats. Equal values may be shown once.

Series [1] can be described thus: Airway deposition and aerosol charges for Permastat, Permastat Plus and standard airway material (Example 38). To be noted: 1 mg, 28.3 LPM; for Mean airway deposition: mean of 4 devices.
The nature of series [2]: Airway deposition and aerosol charges of normal, metallized and Permastat Plus airways (Example 40). It counts as physicochemical. As to conditions: 28.3 LPM.
Where [3] appears, read: Permastat Plus airway, single devices, listed as AZ002.

As for `Cc1nnc2n1-c1ccc(Cl)cc1C(c1ccccc1)=NC2` [Alprazolam], the Mean airway deposition in series [1] (Permastat Plus airway) was found to be 0.07%. Also, in series [1] (setting [3]), the Airway deposition was 0.04% and 0.03% and 0.00% and 0.20%; the Emitted dose is 96.7% and 95.9% and 96.3% and 96.1%. Besides, the Mean airway deposition in series [1] (Permastat airway) came out at 0.12%. Further, the Mean airway deposition in series [1] (control (normal) airway) is 15.1%. Also, in series [2] (Metallized airway, no ESD gun), the Airway dep is recorded as 0%; the “Airway dep (second column)” value was 0% and 0.001%; the “Ave Airway dep” value amounted to 0%. Moreover, in series [2] (Normal airway, ESD gun 16 kV+), the “Airway dep (second column)” value was 0.15% and 0.024%; the Emitted dose was 0.815 mg and 0.943 mg; the HP dep was 0.035 mg and 0.033 mg.
